Reference: paper PMC12609441, “Comparative Preclinical Evaluation of the Tumor-Targeting Properties of Radioiodine and Technetium-Labeled Designed Ankyrin Repeat Proteins for Imaging of Epidermal Growth Factor Receptor Expression in Malignant Tumors” (International Journal of Molecular Sciences, 2025)
These are yes or no findings as the source states them, for the method shown. Some binding calls cover weakened binding; strength is not graded here.

Legend:
[1] = molecular target: epidermal growth factor receptor (EGFR) (human (endogenous in A-431, DU-145, U-87 MG, PC-3)) (UniProt P00533); experiment: radioligand binding; binding specificity test on living EGFR-expressing cells (A-431, DU-145, U-87 MG, PC-3); 5 nM radiolabeled DARPin, 1 h at 37 °C; control dishes pre-saturated for 30 min with 100-fold molar excess of unlabeled (HE)3-E01 or cetuximab; cell-associated activity by gamma counter; only the binder …
[2] = molecular target: epidermal growth factor receptor (EGFR) (human (endogenous in A-431, DU-145, U-87 MG, PC-3)) (UniProt P00533); experiment: radioligand binding; cellular processing on A-431 cells, continuous incubation with 5 nM radiolabeled DARPin at 37 °C for 1, 2, 4, 6 and 24 h; acid wash (0.2 M glycine, 4 M urea, pH 2.0) to separate membrane-bound and internalized activity; only the binder purified
[3] = molecular target: epidermal growth factor receptor (EGFR) (human (endogenous in A-431, DU-145, U-87 MG, PC-3)) (UniProt P00533); experiment: radioligand binding; saturation assay on living A-431 cells; eight concentrations of radiolabeled protein 0.22 to 40 nM, 4 h at 4 °C; nonspecific binding with 50-fold molar excess of unlabeled (HE)3-E01; nonlinear regression; only the binder purified

B1: [^99mTc]Tc-(HE)3-E01 (designed binder)
chain: MRGSHEHEHEGSDLGKKLLEAARAGQDDEVRILMANGADVNADDTWGWTPLHLAAYQGHLEIVEVLLKNGADVNAYDYIGWTPLHLAADGHLEIVEVLLKNGADVNASDYIGDTPLHLAAHNGHLEIVEVLLKHGADVNAQDKFGKTAFDISIDNGNEDLAEILQKLN
modifications: [^99mTc]Tc(CO)3^+ with the (HE)3 tag as a chelator at the N-terminus
notes: DARPin E01 with the N-terminal (HE)3 tag; also called DARPin (HE)3-E01 labeled with [^99mTc]Tc(CO)3; technetium-labeled variant; source: E. coli, purified; labeled with [^99mTc]Tc(CO)3, isolated on NAP-5 size-exclusion column; not shown: (HE)3, N-terminal, kept
binding [1]: binds | binding [2]: binds

B2: DARPin (HE)3-E01 (unlabeled) (designed binder)
chain: MRGSHEHEHEGSDLGKKLLEAARAGQDDEVRILMANGADVNADDTWGWTPLHLAAYQGHLEIVEVLLKNGADVNAYDYIGWTPLHLAADGHLEIVEVLLKNGADVNASDYIGDTPLHLAAHNGHLEIVEVLLKHGADVNAQDKFGKTAFDISIDNGNEDLAEILQKLN
binding [1]: binds | binding [3]: binds
